Source: PubChem BioAssay (EPA / NIEHS)
This list was built around the results that the source calls inconclusive (neither active nor inactive); the mix of calls is not that of the screen. Potencies of inconclusive entries are doubtful fits and often do not repeat. Activity calls are given as the source filed them. Rule for the calls: active = hit-call score of the fitted dose curve at least 0.9, where 1 is the maximum; inconclusive = response in the unintended direction; inactive = score below 0.9.

The chains behind the UniProt entries cited, without tags or fusion partners. Where a name states a change or a piece, a line headed by the entry shows the natural chain unless it says otherwise.
UniProt P60484: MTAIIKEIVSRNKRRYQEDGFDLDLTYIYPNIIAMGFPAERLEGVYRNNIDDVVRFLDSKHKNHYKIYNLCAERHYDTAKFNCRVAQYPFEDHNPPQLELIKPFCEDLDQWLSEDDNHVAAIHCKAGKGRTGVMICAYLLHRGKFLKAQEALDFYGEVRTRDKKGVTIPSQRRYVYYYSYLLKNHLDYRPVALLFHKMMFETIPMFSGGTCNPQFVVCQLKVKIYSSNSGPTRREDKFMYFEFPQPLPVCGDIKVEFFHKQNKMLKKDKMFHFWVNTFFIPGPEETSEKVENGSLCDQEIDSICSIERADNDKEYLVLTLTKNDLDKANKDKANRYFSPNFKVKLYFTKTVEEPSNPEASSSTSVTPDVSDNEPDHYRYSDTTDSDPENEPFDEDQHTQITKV

target: human Phosphatase and Tensin Homolog (PTEN), PTEN (gene 5728) (UniProt P60484); test: NVS_ENZ_hPTEN: NovaScreen (NVS) Enzymatic Assay for human Phosphatase and Tensin Homolog (PTEN) (AID 2283203)
Summary of the method: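 Cell-free recombinant human PTEN with fluorescent substrate; product separated by electrophoretic mobility shift and read by fluorescence 1 h after dosing. Primary screen in duplicate at 25 uM, actives followed in concentration series versus DMSO.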

Structure (SMILES)	AC50	outcome
CCCCCC1=CCCC1=O	active: 16300 nM	
O=C(O)c1cn(-c2ccc(F)cc2)c2cc(N3CCNCC3)c(F)cc2c1=O	inconclusive: 685 nM	
CC1CCCCC1	inconclusive: 2.29 nM	
COc1ccccc1C=O		inactive
CC(C)=NNC(N)=S	inconclusive: 266 nM	
N#Cc1ccc(CC(=NNC(=O)Nc2ccc(OC(F)(F)F)cc2)c2cccc(C(F)(F)F)c2)cc1		inactive
Cc1ccc(N)c([N+](=O)[O-])c1	active: 25000 nM	
c1ccc2sc(SSN3CCOCC3)nc2c1	inconclusive: 396 nM	
CN1CCN(C)CC1	inconclusive: 98.9 nM	
CC(C)CCOCCC(C)C		inactive
Cc1cnccn1	inconclusive: 25000 nM	
Clc1ccc(Nc2nnc(Cc3ccncc3)c3ccccc23)cc1	inconclusive: 138 nM	
CC=CCO	inconclusive: 98.6 nM	
CC[N+](CC)(CC)Cc1ccccc1	inconclusive: 150 nM	
CC(CO)(CO)[N+](=O)[O-]	inconclusive: 99.1 nM	
CCCC(O)C(O)CO (stereo not given)	inconclusive: 262 nM	
O=C(O)C[C@H](O)C[C@H](O)/C=C/c1c(C2CC2)nc2ccccc2c1-c1ccc(F)cc1	active: 161 nM	
CSc1nnc(C(C)(C)C)c(=O)[nH]1	inconclusive: 350 nM	
C=CC/C=C/C/C=C/C/C=C/C	inconclusive: 192 nM	
Clc1nc2ccccc2s1	inconclusive: 172 nM	

Structure (SMILES)	AC50	outcome
CCN(CCC#N)c1ccc(N=Nc2ccc([N+](=O)[O-])cc2)cc1		inactive
Cc1ccc2n[nH]nc2c1	inconclusive: 26.9 nM	
N#[N+]c1ccc2c(S(=O)(=O)[O-])cccc2c1O		inactive
Cc1ccc2ccccc2n1	inconclusive: 437 nM	
CO[Si](CCC1CCC2OC2C1)(OC)OC (stereo not given)	inconclusive: 91.4 nM	
Cc1ccccc1S(N)(=O)=O		inactive
Nc1cc([N+](=O)[O-])ccc1Cl	inconclusive: 56.7 nM	
CN(C)c1ccc(C(=C2C=CC(=[N+](C)C)C=C2)c2ccccc2)cc1	inconclusive: 59.9 nM	
Cc1cncc(C)c1		inactive
C=CC(C)(C)O	inconclusive: 239 nM	
O=C=Nc1cccc2c(N=C=O)cccc12		inactive
CC(c1cc(C(C)(C)C)cc(C(C)(C)C)c1O)c1cc(C(C)(C)C)cc(C(C)(C)C)c1O	active: 5290 nM	
CN(C)C(=S)SC(=S)N(C)C	active: 18900 nM	
ClC(c1ccccc1)(c1ccccc1)c1ccccc1	inconclusive: 96.4 nM	
O=C=NC1CCC(CC2CCC(N=C=O)CC2)CC1 (stereo not given)	inconclusive: 92.2 nM	
Oc1ccc2c(c1)CCC2	active: 1620 nM	
Cc1c[nH]c(=O)[nH]c1=O	inconclusive: 84 nM	
Clc1cc(Cl)c(-c2c(Cl)c(Cl)cc(Cl)c2Cl)cc1Cl	active: 12500 nM	
c1ccc2cc(Nc3ccc(Nc4ccc5ccccc5c4)cc3)ccc2c1	inconclusive: 505 nM	
Cc1c(Cl)c(=O)oc2cc(O)ccc12	inconclusive: 775 nM	

Three entries already listed, arranged by SMILES length, ascending.
Structure (SMILES)	AC50	outcome
Nc1cc([N+](=O)[O-])ccc1Cl	inconclusive: 56.7 nM	
Clc1cc(Cl)c(-c2c(Cl)c(Cl)cc(Cl)c2Cl)cc1Cl	active: 12500 nM	
CN(C)c1ccc(C(=C2C=CC(=[N+](C)C)C=C2)c2ccccc2)cc1	inconclusive: 59.9 nM	
